Results: patent US4416871A, “Inhibition by peptides of tolerance to and physical dependence on morphine” (The United States of America as represented by the …, priority 1982, dated 1983)
At least one peptide structure holds a part that was inferred or is arguable (an end, a ring closure or a residue). For at least one compound, name, drawing or mass did not settle the structure. Non-standard residues stand in square brackets, D forms with d. Residues, ends and D or L forms follow the SMILES beside them. *: point of attachment. ΔPro = O=C(O)[C@@H]1C=CCN1; Cbz = O=C(OCc1ccccc1)*

Columns and labels:
[1] = system: morphine-dependent mice; assay: Naloxone-precipitated withdrawal: body temperature and withdrawal signs; type: in vivo; settings: Table III
[2] = system: morphine-dependent mice; assay: as above; type: in vivo; settings: for Withdrawal, % of control (jumping, shakes, diarrhea) / Δt, °C. (difference in body temperature just prior to naloxone and 30 min. thereafter): Table II, peptide 50 μg per mouse, naloxone 0.1 mg/kg; for Δt, °C. (difference in body temperature just prior to naloxone and 30 min. thereafter): mean ± SD; for Withdrawal, % of control / Δt, °C. / lowest dose still effective in blocking physical dependence on morphine: Table III; for lowest dose still effective in blocking physical dependence on morphine: dose-response experiments; for ability to block development of physical dependence on morphine: naloxone-precipitated withdrawal, Tables II and III
Procedure: The mice were randomly divided into two groups. One received SC injections of water (vehicle) while the other received the peptide under investigation (50 μg/mouse on day one). Two hours later the mice were further subdivided and each subgroup was implanted with placebo or morphine pellets. The injections of vehicle and peptide were repeated 24 and 48 hours after the first injection in their respective groups. Morphine pellets containing 75 mg of morphine free base were implanted subcutaneously (SC) between 10-11 A.M. and were removed 3 days later at the same time. The control animals were implanted with placebo pellets. Body temperature and weight were measured daily at 11 A.M. Temperature was measured using a lubricated rectal probe inserted 2.5 cm into the rectum and measured with a telethermometer (Model 43TA Yellow Springs Instrument Co., Yellow Springs, Ohio).
To determine the effects of peptide treatment on the development of physical dependence, the abstinence syndrome was precipitated using the morphine antagonist naloxone (Endo Laboratories Inc., N.Y.) at the appropriate dose (0.1, 0.25, or 0.50 mg/kg) injected intraperitoneally (IP) one hour following removal of morphine and placebo pellets. Pellet removal was performed 24 hours after the last peptide injection. These mice were monitored for changes in body temperature (see above) and body weight at 15 min. intervals for one hour after the naloxone injection. Effects of removing the pellets (withdrawing morphine) were also assessed by utilizing body temperature and weight as physical dependence parameters; however, these measurements were made at 2 hour intervals for 10 hours after the removal of the pellets. Placebo implanted mice were treated in the same manner as the morphine pellet implanted mice.

[3] = literature, Life Sci., 19, 1331-1340; cited from earlier work

Row | SMILES | Withdrawal, % of control ([1]; dose 0.05 μg) [%] | Δt, °C. ([1]; dose 0.05 μg) [°C] | Withdrawal, % of control ([1]; dose 0.5 μg) [%] | Δt, °C. ([1]; dose 0.5 μg) | Withdrawal, % of control ([1]; dose 5 μg) [%] | Δt, °C. ([1]; dose 5 μg) | Withdrawal, % of control (jumping, shakes, diarrhea) [2] [%] | Δt, °C. (difference in body temperature just prior to naloxone and 30 min. thereafter) [2] | Withdrawal, % of control ([2]; dose 0.005 μg) [%] | Δt, °C. ([2]; dose 0.005 μg) [°C] | Withdrawal, % of control ([2]; dose 50 μg) [%] | Δt, °C. ([2]; dose 50 μg) | lowest dose still effective in blocking physical dependence on morphine [2] [μg per mouse] | ability to block development of physical dependence on morphine [2] | relative potency in facilitating development of physical dependence on and tolerance to morphine [3]
1 | CC(C)C[C@H](NC(=O)[C@@H]1CCCN1)C(=O)NCC(N)=O [Pro--Leu--Gly--NH2 (MIF), prolyl-leucyl-glycylamide] (H-Pro-Leu-Gly-NH2) | 100 | -1.50 ± 0.14 | 0 | +0.18 ± 0.39 °C | 0 | +0.08 ± 0.28 °C | 0 | +0.25 ± 0.24 °C | 100 | -1.65 ± 0.17 | 0 | +0.25 ± 0.24 °C | 0.5 | highly effective | as effective as oxytocin
2 | CC(C)C[C@H](NC(=O)[C@@H]1CCCN1)C(=O)O [Pro--Leu] (H-Pro-Leu-OH) |  |  |  |  |  |  | 25 | -0.13 ± 0.74 °C |  |  |  |  |  | exhibited activity | 
3 | CC(C)C[C@H](NC(=O)[C@@H]1CCCN1C(=O)OCc1ccccc1)C(=O)NCC(N)=O [Z-Pro--Leu--Gly--NH2, N-carbobenzoxyprolyl-leucyl-glycylamide] (Cbz-Pro-Leu-Gly-NH2) |  |  | 66 | -0.65 ± 0.85 °C | 33 | -0.37 ± 0.26 °C | 0 | +0.07 ± 0.08 °C |  |  | 0 | +0.07 ± 0.08 °C | 5 |  | 
4 | CC(C)C[C@H](NC(=O)[C@@H]1C=CCN1)C(=O)NCC(N)=O [Δ^3 Pro--Leu--Gly--NH2] (H-[ΔPro]-Leu-Gly-NH2) |  |  |  |  |  |  | 100 | -1.53 ± 0.81 °C |  |  |  |  |  |  | 
